Experimental data published in the supplement of paper PMC10849652.
Some of the results follow.

The chains behind the UniProt entries cited, without tags or fusion partners. Where a name states a change or a piece, a line headed by the entry shows the natural chain unless it says otherwise.
UniProt Q9NXC2: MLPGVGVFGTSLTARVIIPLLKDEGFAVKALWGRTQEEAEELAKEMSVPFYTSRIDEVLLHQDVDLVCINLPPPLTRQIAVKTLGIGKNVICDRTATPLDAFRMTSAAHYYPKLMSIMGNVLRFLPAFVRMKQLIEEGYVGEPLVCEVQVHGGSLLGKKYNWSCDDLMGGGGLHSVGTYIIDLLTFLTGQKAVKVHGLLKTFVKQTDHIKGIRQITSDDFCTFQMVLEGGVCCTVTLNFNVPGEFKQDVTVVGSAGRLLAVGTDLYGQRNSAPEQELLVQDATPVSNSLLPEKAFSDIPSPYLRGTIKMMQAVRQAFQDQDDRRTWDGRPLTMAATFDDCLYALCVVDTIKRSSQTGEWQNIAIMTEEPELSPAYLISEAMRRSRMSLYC
UniProt O43524: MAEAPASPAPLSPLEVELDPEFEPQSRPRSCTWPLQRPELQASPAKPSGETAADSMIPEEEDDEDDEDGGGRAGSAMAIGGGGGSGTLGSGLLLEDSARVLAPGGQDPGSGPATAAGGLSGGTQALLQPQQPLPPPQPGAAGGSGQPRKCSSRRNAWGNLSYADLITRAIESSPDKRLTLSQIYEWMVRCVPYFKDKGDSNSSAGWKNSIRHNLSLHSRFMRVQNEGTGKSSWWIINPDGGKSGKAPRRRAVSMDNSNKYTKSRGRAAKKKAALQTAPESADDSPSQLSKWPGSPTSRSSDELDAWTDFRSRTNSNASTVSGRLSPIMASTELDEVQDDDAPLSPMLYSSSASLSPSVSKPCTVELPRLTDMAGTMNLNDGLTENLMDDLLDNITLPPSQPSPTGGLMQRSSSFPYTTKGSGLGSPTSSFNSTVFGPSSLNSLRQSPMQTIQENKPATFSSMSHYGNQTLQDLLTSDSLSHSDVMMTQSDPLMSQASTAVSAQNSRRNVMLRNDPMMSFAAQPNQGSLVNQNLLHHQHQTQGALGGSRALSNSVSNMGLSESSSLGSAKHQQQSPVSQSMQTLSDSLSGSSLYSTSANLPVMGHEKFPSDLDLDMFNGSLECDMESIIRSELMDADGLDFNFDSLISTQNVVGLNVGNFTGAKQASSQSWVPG
UniProt Q9H840: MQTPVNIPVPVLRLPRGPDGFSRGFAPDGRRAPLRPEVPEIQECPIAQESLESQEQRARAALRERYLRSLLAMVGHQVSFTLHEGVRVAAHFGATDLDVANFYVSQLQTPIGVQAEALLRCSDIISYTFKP
UniProt Q70Z53: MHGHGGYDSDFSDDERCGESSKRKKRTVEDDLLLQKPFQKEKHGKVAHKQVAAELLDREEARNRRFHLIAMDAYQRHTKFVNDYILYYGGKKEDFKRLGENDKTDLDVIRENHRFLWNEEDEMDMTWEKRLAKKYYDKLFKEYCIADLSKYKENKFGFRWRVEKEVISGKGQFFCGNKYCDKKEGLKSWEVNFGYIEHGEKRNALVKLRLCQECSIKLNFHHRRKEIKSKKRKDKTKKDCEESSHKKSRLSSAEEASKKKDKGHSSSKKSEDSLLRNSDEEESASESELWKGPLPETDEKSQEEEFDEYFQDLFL

How the values were obtained:
Assay in all cases: log2 fold change, soluble protein after heating vs DMSO (PISA); higher = thermal stabilisation; K562 cells, 10 uM, 30 min; active = over 0.2 and 3.5 SD of the protein, either way, in both replicates (recomputed)
erlotinib = compound: C#Cc1cccc(Nc2ncnc3cc(OCCOC)c(OCCOC)cc23)c1 [erlotinib]
Method in brief: (§1)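 Aliquots of K562 cells (2×10^6 cells/mL) treated with 10 μM compound for 30 min were heated for 3 min over 48°C-58°C. After pooling and extraction in PBS with 0.5% NP-40 at 4°C, soluble protein from a 21,000xg, 90 min spin was quantified by TMTpro 16plex LC-MS/MS with channel sums equalised. Thermal stability is expressed against control samples, from duplicates, as a log2 fold change.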

[1] = compound: C1=CC(=C(C=C1Cl)C2=NC3=NC=CN=C3C(=N2)NC4=CC=NC=C4)F
Method in brief: as §1

[2] = compound: C1=CC(=CC=C1C2=NC3=C(N2)C=C(C=C3)C(=O)N)OC4=CC=C(C=C4)Cl
Method in brief: as §1

IRAK-1-4 Inhibitor I = compound: C1COCCN1CCN2C3=CC=CC=C3N=C2NC(=O)C4=CC(=CC=C4)[N+](=O)[O-] [IRAK-1-4 Inhibitor I]
Method in brief: as §1

[3] = compound: CC(C)(O)CC(=O)NCCn1ccc2ncnc(Nc3ccc(Oc4cccc(C(F)(F)F)c4)c(Cl)c3)c21
Method in brief: as §1

[4] = compound: CC(C)C1=C2N=C(C=C(N2N=C1)NCC3=CC=CC=C3)NCCCCCCN
Method in brief: as §1

pinometostat = compound: CC(C)N(C[C@H]1O[C@@H](n2cnc3c(N)ncnc32)[C@H](O)[C@@H]1O)[C@H]1C[C@@H](CCc2nc3cc(C(C)(C)C)ccc3[nH]2)C1 [pinometostat]
Method in brief: as §1

[5] = compound: C/C(=N\NC(=O)C1=CC(=CC=C1)S(=O)(=O)N2CCOCC2)/C3=C(C=CC(=C3)Cl)O
Method in brief: as §1

[6] = compound: C1=CC2=C(C=CC(=C2)/C=C\3/C(=O)NC(=NCC4=CC=CS4)S3)N=C1
Method in brief: as §1

[7] = compound: C1=CC=C(C=C1)C2=NC(=C(N2)C3=CC=NC=C3)C4=CC(=C(C=C4)Cl)O
Method in brief: as §1

[8] = compound: C1=CC=C2C(=C1)C3=NNC4=CC=CC(=C43)C2=O
Method in brief: as §1

[9] = compound: C1CCN(C1)C(=O)NC2=CC=CC(=C2)NC3=NC=C(C(=N3)NCCC4=CN=CN4)Br
Method in brief: as §1

[10] = compound: C1CN(CCC1(CC2=CC=C(C=C2)Cl)N)C3=NC=NC4=C3C=CN4
Method in brief: as §1

[11] = compound: CC(=O)c1cnc2ccc(-c3cc(Cl)c(O)c(Cl)c3)nc2c1N[C@H]1CC[C@H](CN(C)C)CC1
Method in brief: as §1

ralimetinib = compound: CC(C)(C)Cn1c(N)nc2ccc(-c3[nH]c(C(C)(C)C)nc3-c3ccc(F)cc3)nc21 [ralimetinib]
Method in brief: as §1

[12] = compound: CC(C)C[C@@H](C=O)NC(=O)[C@H](CC(C)C)NC(=O)[C@H](CC(C)C)NC(=O)OCc1ccccc1
Method in brief: as §1

[13] = compound: CC1=C(C2=C(C=C1)C(=O)C3=CC=CC=C3N2CCCN)C
Method in brief: as §1

[14] = compound: C1=CC2=NC=CN=C2C=C1/C=C/3\C(=O)NC(=O)S3
Method in brief: as §1

ibrutinib = compound: C=CC(=O)N1CCC[C@@H](n2nc(-c3ccc(Oc4ccccc4)cc3)c3c(N)ncnc32)C1 [ibrutinib]
Method in brief: as §1

Measured: log2 fold change

GFOD1 (UniProt Q9NXC2)
inactive: erlotinib -0.249 | [1] -0.219 | [2] 0.163 | IRAK-1-4 Inhibitor I -0.102 | [3] 0.046 | [4] -0.186 | pinometostat 0.039

FOXO3 (UniProt O43524)
inactive: erlotinib 0.026 | [5] -0.007 | [1] -0.025 | [2] -0.079 | [6] 0.027 | [7] -0.035 | [8] 0.038 | [9] -0.224 | [10] -0.283 | IRAK-1-4 Inhibitor I -0.046 | [11] -0.427 | ralimetinib -0.083 | [3] 0.086 | [4] -0.091 | [12] 0.234 | pinometostat 0 | [13] 0.081

GEMIN7 (UniProt Q9H840)
inactive: erlotinib 0.105 | [1] -0.094 | [2] 0.192 | [3] 0.029 | [4] -0.303

FRA10AC1 isoform 3 (UniProt Q70Z53)
inactive: erlotinib -0.02 | [5] 0.053 | [1] -0.059 | [2] -0.12 | [6] -0.305 | [14] 0.033 | [8] -0.154 | [9] -0.067 | [10] 0.126 | IRAK-1-4 Inhibitor I 0.005 | ibrutinib -0.014 | [11] 0.024 | [3] -0.024 | [4] 0.169 | pinometostat 0.001 | [13] -0.201
